Results as given in the supplement of paper PMC10849652.
The other results are listed elsewhere or left out.

Chains of the proteins cited; added tags and fusions are not shown. Lines headed by an entry give the natural chain unless they say otherwise; changes in a name come on top.
UniProt P05114: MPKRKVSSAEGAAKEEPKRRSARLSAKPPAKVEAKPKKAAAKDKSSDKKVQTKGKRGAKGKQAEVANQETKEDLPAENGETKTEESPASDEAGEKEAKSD
UniProt Q96JB3: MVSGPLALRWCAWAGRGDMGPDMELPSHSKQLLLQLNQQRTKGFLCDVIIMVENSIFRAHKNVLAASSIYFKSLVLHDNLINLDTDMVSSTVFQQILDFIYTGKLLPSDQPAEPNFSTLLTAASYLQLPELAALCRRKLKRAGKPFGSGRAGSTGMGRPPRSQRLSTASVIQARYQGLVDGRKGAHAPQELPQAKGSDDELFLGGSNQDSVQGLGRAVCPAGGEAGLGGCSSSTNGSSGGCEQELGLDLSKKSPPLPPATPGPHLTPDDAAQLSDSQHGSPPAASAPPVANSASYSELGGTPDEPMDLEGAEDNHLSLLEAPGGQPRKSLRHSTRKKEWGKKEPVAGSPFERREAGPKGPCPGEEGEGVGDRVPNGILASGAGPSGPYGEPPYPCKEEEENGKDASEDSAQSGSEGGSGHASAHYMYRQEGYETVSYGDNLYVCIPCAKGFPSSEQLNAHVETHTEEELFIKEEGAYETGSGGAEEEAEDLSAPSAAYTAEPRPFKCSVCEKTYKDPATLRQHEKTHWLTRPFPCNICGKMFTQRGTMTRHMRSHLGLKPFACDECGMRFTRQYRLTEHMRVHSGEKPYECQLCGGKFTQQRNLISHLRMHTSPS
UniProt Q6AI08: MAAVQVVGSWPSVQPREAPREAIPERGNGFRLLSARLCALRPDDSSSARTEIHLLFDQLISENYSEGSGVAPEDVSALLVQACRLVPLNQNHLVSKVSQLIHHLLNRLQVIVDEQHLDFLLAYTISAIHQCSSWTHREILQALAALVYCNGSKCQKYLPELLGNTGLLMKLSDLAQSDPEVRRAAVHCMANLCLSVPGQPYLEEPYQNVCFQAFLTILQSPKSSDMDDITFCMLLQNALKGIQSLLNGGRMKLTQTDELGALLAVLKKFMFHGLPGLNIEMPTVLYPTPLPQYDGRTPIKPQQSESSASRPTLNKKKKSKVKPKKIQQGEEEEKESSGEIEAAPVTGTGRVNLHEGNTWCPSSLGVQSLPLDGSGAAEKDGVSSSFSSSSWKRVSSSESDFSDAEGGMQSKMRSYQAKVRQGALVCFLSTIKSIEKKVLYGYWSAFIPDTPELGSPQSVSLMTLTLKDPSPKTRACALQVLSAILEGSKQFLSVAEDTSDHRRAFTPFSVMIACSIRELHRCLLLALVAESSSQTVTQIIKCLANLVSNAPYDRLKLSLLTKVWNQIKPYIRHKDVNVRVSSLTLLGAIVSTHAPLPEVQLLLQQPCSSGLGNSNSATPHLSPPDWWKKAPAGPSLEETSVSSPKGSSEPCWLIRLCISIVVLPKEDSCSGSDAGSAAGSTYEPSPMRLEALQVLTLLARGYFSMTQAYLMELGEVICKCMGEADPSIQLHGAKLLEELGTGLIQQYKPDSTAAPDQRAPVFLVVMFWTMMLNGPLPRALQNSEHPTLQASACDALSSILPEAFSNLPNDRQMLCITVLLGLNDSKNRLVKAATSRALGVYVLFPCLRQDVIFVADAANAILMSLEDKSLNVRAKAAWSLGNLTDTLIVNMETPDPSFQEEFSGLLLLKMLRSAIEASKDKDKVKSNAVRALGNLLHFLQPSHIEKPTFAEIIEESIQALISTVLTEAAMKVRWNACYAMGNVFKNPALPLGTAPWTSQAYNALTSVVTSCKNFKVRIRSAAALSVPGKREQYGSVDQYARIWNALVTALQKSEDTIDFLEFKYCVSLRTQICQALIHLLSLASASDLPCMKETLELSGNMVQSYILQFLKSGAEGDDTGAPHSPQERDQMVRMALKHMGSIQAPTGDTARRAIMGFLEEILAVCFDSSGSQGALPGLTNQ
UniProt Q92506: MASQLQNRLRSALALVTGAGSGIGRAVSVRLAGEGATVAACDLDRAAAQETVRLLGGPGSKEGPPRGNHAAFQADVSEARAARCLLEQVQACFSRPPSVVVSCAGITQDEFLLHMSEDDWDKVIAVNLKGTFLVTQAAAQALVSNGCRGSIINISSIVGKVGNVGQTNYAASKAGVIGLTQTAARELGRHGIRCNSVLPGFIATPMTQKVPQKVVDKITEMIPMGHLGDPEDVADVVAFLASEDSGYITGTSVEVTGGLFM
UniProt Q58FG1, whole entry, looked up: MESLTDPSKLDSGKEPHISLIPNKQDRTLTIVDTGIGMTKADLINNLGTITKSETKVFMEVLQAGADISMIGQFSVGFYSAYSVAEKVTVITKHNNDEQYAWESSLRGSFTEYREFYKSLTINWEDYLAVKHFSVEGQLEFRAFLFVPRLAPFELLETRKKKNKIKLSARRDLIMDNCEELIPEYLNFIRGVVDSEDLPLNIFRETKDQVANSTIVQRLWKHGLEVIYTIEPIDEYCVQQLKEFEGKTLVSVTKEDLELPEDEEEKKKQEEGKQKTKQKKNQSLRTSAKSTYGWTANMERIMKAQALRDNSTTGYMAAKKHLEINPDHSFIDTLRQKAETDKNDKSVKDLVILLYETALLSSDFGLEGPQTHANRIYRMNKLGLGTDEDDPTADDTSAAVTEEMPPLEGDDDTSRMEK
UniProt P17482: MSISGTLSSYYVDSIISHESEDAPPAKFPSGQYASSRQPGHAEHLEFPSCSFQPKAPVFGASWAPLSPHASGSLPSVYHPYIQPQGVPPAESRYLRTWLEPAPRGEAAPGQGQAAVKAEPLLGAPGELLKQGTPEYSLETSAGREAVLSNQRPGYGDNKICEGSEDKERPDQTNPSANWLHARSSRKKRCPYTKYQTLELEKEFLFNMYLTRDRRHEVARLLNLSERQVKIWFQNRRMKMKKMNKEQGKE
UniProt P08238, whole entry, looked up: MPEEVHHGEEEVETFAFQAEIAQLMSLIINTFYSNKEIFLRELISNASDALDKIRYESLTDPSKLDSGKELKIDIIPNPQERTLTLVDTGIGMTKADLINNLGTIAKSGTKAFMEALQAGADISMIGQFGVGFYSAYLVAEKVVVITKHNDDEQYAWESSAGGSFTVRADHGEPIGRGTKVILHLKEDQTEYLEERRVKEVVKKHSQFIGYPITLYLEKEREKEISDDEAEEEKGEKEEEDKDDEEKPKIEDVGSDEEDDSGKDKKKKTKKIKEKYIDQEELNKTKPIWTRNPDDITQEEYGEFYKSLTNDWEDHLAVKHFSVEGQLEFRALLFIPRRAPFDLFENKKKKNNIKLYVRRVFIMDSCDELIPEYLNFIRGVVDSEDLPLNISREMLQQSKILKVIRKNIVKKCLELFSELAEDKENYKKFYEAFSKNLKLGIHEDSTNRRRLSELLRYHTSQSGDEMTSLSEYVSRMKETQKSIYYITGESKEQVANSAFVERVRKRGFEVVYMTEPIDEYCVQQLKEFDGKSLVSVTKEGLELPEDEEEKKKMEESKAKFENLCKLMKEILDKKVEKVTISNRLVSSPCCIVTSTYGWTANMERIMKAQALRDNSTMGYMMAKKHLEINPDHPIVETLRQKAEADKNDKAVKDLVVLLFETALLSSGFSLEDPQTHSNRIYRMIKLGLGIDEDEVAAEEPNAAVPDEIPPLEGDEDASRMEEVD
UniProt Q9NWT6: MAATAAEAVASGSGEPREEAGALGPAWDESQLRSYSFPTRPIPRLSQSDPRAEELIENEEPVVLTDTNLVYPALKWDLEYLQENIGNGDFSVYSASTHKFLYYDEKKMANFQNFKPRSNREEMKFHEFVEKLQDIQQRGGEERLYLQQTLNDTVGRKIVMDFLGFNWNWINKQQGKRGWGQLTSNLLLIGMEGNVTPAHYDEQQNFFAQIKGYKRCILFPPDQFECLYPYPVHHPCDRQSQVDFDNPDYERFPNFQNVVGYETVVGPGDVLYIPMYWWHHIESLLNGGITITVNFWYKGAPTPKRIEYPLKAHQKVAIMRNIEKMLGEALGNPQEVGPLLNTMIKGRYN
UniProt Q9ULT8: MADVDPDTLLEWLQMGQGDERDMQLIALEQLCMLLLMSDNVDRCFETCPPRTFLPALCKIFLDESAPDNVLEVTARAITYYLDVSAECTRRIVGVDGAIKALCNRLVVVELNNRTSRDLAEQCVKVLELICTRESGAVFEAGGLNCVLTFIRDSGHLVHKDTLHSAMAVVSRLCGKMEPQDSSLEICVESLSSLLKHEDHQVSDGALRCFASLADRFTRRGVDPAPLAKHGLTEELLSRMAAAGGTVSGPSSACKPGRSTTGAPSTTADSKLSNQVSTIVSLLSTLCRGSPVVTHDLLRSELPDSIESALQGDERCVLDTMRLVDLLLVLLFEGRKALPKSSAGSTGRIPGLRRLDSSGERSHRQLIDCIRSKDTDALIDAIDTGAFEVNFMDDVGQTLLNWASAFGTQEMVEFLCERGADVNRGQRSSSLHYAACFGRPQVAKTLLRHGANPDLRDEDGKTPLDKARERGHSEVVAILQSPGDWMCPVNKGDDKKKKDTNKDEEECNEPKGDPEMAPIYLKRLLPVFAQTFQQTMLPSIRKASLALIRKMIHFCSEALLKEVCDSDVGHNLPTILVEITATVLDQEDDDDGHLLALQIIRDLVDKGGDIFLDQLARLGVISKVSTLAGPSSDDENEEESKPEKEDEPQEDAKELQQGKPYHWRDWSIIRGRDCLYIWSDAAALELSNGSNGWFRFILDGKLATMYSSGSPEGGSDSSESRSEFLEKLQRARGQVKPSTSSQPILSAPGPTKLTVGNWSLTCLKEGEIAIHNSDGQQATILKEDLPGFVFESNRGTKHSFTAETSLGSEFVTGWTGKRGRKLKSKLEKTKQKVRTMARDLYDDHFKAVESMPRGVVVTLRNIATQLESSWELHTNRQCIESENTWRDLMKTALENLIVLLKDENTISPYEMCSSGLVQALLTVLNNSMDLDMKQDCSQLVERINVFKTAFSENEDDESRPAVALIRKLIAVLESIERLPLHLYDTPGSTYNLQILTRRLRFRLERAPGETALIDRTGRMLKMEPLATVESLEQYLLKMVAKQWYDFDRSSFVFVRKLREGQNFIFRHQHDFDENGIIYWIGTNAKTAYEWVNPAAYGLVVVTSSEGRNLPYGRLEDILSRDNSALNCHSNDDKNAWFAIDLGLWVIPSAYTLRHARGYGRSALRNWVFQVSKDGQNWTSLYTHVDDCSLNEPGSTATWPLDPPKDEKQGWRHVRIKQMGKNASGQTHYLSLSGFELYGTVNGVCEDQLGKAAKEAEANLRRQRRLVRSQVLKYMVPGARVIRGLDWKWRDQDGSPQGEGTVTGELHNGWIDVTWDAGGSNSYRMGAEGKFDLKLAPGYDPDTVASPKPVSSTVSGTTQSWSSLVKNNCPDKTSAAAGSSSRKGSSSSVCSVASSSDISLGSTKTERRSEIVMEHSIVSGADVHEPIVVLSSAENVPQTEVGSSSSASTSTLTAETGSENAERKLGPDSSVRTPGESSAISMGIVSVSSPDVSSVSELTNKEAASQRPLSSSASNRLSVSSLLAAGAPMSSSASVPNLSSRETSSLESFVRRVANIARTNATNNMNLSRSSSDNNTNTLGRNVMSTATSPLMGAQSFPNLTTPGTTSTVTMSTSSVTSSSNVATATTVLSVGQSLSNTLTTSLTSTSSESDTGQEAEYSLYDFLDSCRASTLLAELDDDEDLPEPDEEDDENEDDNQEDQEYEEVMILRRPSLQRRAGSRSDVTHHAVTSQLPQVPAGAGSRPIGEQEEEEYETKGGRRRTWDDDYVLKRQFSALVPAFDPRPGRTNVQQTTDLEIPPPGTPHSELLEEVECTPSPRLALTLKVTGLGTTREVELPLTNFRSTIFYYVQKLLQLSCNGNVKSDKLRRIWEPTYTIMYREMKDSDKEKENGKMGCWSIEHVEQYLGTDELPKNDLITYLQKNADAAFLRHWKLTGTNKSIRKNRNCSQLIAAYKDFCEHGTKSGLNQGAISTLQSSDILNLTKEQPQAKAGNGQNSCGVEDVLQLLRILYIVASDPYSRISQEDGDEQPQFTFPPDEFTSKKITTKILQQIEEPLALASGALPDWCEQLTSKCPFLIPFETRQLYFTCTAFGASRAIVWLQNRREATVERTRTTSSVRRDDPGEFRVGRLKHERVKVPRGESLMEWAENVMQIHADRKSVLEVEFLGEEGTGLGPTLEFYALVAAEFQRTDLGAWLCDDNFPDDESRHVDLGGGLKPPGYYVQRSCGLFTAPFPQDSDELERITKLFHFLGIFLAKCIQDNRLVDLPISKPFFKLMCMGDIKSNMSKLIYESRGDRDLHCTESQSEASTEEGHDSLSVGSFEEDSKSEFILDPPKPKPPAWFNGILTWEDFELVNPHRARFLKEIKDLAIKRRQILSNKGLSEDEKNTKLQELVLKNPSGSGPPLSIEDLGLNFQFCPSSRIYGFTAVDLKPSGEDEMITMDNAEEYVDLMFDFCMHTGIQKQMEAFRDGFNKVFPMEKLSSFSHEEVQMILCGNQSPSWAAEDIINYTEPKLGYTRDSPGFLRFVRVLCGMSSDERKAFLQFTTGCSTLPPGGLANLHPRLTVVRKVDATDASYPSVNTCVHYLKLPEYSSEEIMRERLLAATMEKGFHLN

How the values were obtained:
Experiment in all cases: log2 fold change, soluble protein after heating vs DMSO (PISA); higher = thermal stabilisation; K562 lysate, 10 uM; active = over 0.2 and 3.5 SD of the protein, either way, in both replicates (recomputed)
[1] = compound: C1=CC=C(C=C1)[C@H](COC2=CC3=C(C=C2)NC(=O)N3)NC(=O)C4=CC=CN(C4=O)CC5=CC(=C(C=C5)F)F
In short: (§1)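 Log-two fold change in thermal stability relative to solvent controls is reported from duplicates. For each sample, crude K562 extract from dounce-homogenised pellets in PBS pH 7.4 with 1 mM MgCl2, at 1 mg/mL protein, was treated with 10 μM compound for 30 min. Aliquots heated for 3 min across 48°C-58°C were pooled, brought to 0.5% NP-40 at 4°C and cleared at 21,000xg for 90 min. The supernatant was quantified by TMTpro 16plex LC-MS/MS with channel sums equalised.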

[2] = compound: CC1=C(SC2=C1C(=N[C@H](C3=NN=C(N32)C)CC(=O)N)C4=CC=C(C=C4)Cl)C
In short: as §1

[3] = compound: CC1=C2C(=CC=C1)N=C(N(C2=O)C3=CC=CC=C3C)CN4C=NC5=C(N=CN=C54)N
In short: as §1

[4] = compound: Cc1sc2c(c1C)C(c1ccc(Cl)cc1)=N[C@@H](CC(=O)OC(C)(C)C)c1nnc(C)n1-2
In short: as §1

[5] = compound: c1ccc([C@@H]2C[C@H]2NC2CCNCC2)cc1
In short: as §1

Measured: log2 fold change

HS1BP3 (UniProt Q53T59)
inactive: [1] 0.018 | [2] -0.03 | [3] -0.073 | [4] 0.004 | [5] -0.053

HNRNPH3 (UniProt P31942)
inactive: [1] -0.027 | [2] 0.023 | [3] 0.078 | [4] 0.032 | [5] 0.013

HMGN1 (UniProt P05114)
inactive: [1] -0.022 | [2] 0.005 | [3] -0.047 | [4] -0.045 | [5] 0.03

HIC2 (UniProt Q96JB3)
inactive: [1] -0.039 | [2] 0.039 | [3] -0.015 | [4] 0.037 | [5] -0.031

HNRNPC (UniProt P07910)
inactive: [1] -0.008 | [2] 0.062 | [3] 0.01 | [4] 0.092 | [5] 0.022

HEATR6 (UniProt Q6AI08)
inactive: [1] -0.039 | [2] -0.086 | [3] 0.05 | [4] 0.008 | [5] 0.014

HSD17B8 (UniProt Q92506)
inactive: [1] 0 | [2] -0.023 | [3] -0.016 | [4] -0.026 | [5] -0.026

HIBCH (UniProt Q6NVY1)
inactive: [1] -0.004 | [2] 0.005 | [3] 0.026 | [4] 0.021 | [5] 0.033

HNRNPD isoform 3 (UniProt Q14103)
inactive: [1] -0.087 | [2] -0.145 | [3] 0 | [4] -0.096 | [5] -0.003

HOXB4 (UniProt P17483)
inactive: [1] -0.053 | [2] 0.118 | [3] 0.089 | [4] 0.13 | [5] 0.236

HSCB (UniProt Q8IWL3)
inactive: [1] -0.036 | [2] 0.241 | [3] 0.045 | [4] -0.037 | [5] 0.003

HMCES (UniProt Q96FZ2)
inactive: [1] -0.004 | [2] -0.004 | [3] 0.005 | [4] 0.049 | [5] 0.043

HSP90AA4P (UniProt Q58FG1)
inactive: [1] 0.012 | [2] 0.1 | [3] -0.008 | [4] -0.101 | [5] -0.308

HM13 isoform 2 (UniProt Q8TCT9)
inactive: [1] 0.004 | [2] -0.017 | [3] 0.025 | [4] -0.062 | [5] -0.035

2 entries drawn at random from those above:
HMGN1 (UniProt P05114)
inactive: [1] -0.022 | [2] 0.005 | [3] -0.047 | [4] -0.045 | [5] 0.03

HSCB (UniProt Q8IWL3)
inactive: [1] -0.036 | [2] 0.241 | [3] 0.045 | [4] -0.037 | [5] 0.003

Additional entries

HOXB9 (UniProt P17482)
inactive: [1] 0 | [2] 0.047 | [3] -0.01 | [4] 0.131 | [5] -0.03

HSP90AB1 (UniProt P08238)
inactive: [1] 0.016 | [2] -0.013 | [3] -0.008 | [4] -0.001 | [5] 0.077

HIF1AN (UniProt Q9NWT6)
inactive: [1] 0.044 | [2] 0.017 | [3] -0.028 | [4] 0.003 | [5] -0.015

HMGA1 (UniProt P17096)
inactive: [1] 0.009 | [2] 0.024 | [3] 0.011 | [4] -0.031 | [5] -0.135

HMGB1 (UniProt P09429)
inactive: [1] 0.053 | [2] -0.048 | [3] 0.032 | [4] 0.056 | [5] 0.115

HMBOX1 isoform 5 (UniProt Q6NT76)
inactive: [1] 0.016 | [2] -0.008 | [3] 0.055 | [4] 0.027 | [5] -0.114

HS2ST1 (UniProt Q7LGA3)
inactive: [1] 0.066 | [2] -0.038 | [3] -0.007 | [4] 0.042 | [5] -0.015

HECTD1 (UniProt Q9ULT8)
inactive: [1] -0.008 | [2] 0 | [3] -0.029 | [4] -0.002 | [5] -0.012

HSPA1L (UniProt P34931)
inactive: [1] -0.032 | [2] 0.152 | [3] -0.066 | [4] -0.084 | [5] 0.006

HSPA5 (UniProt P11021)
inactive: [1] -0.001 | [2] 0.002 | [3] -0.006 | [4] 0.017 | [5] 0.031
